{
  "source": "patent US20240415820A1",
  "about": "“COMBINATIONS FOR RETAINING FOLLICLES RESERVE” (SHEBA IMPACT LTD., priority 2021, published 2024)",
  "tested_on": "primordial follicles (PMF)",
  "assay": "In vivo mouse model of Cy-induced follicle depletion, follicle counting (H&E)",
  "conditions": "co-treatment with Cy",
  "note": "Some of these results come from one statement about several compounds together.",
  "data": [
    {"smiles": "CO[C@H]1C[C@@H]2CC[C@@H](C)[C@@](O)(O2)C(=O)C(=O)N2CCCC[C@H]2C(=O)O[C@H]([C@H](C)C[C@@H]2CC[C@@H](OC(=O)C(C)(CO)CO)[C@H](OC)C2)CC(=O)[C@H](C)/C=C(\\C)[C@@H](O)[C@@H](OC)C(=O)[C@H](C)C[C@H](C)/C=C/C=C/C=C/1C", "note": "[Tem, Temsirolimus]", "values": [
      {"measurement": "protection against Cy induced ovarian reserve (PMF) depletion", "result": "40-50%"}
    ]}
  ]
}
